The source of these data is US20050272633A1.

Protein sequences, listed by entry. Tags and fused reporters are not part of them. Lines headed by an entry give the natural chain unless they say otherwise; changes in a name come on top.
UniProt P31785: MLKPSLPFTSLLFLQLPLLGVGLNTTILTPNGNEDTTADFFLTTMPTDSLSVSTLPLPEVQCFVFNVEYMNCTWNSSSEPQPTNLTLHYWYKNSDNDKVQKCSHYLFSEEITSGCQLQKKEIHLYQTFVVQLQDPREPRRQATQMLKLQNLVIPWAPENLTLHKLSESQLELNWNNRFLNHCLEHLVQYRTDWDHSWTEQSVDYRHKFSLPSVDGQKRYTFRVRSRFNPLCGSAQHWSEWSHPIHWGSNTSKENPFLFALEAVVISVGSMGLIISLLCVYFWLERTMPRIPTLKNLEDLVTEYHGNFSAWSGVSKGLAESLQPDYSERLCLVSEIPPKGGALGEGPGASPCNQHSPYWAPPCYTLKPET
UniProt Q99558: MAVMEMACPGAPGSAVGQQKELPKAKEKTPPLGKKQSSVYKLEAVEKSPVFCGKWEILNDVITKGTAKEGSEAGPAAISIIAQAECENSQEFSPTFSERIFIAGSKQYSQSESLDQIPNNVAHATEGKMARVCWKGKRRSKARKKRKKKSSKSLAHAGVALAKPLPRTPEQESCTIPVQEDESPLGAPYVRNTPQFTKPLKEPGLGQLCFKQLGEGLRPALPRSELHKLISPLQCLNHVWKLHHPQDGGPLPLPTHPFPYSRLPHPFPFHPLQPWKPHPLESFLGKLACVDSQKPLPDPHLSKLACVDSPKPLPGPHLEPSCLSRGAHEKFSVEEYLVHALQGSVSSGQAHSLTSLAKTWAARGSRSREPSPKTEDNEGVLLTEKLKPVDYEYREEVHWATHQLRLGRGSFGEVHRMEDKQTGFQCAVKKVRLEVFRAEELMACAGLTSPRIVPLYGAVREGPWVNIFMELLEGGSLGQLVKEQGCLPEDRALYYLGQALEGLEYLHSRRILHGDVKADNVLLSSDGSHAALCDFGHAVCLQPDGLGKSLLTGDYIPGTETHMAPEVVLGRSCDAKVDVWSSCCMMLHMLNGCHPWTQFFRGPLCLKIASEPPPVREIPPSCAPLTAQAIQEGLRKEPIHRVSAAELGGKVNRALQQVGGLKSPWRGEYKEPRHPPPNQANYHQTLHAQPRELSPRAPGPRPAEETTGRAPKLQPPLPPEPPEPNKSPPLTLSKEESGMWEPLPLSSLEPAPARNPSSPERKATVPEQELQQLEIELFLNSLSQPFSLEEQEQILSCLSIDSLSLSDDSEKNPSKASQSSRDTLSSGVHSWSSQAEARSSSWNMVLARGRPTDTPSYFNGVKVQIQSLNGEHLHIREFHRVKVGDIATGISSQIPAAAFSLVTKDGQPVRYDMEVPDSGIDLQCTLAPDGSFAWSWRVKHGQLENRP

For assay [1], the target named is IL-2 receptor common gamma chain (cγc), full length (1-369) (human) (UniProt P31785). The experiment in a line: yeast two-hybrid, NIK as bait, cγc as prey, beta-gal assay.
Assay [2] shares this target. Briefly: co-immunoprecipitation with anti cγc from PBMC, Western blot. (In general: In western blotting, separated proteins are transferred to a membrane and probed.)
Assay [3] has the same target. Briefly: co-immunoprecipitation of endogenous proteins with anti cγc from PBMC.
Assay [4] shares this target. Briefly: co-immunoprecipitation of endogenous proteins with anti cγc from PBMC, Western blot.
The target is the same in assay [5]. Briefly: co-immunoprecipitation with anti cγc from 293T cells, Western blot with anti His.
Assay [6] shares this target. The experiment in a line: co-immunoprecipitation from 293-T lysates.
Assay [7] shares this target. Briefly: co-immunoprecipitation with anti myc from 293-T lysate, Western blot with anti cγc.

Results are given in words; binding and its absence hold for the method and conditions named. A result given as binding can be weak or reduced; the word gives no strength. For some of these results: In cells and extracts the contact can be indirect.

With “NF-κB-inducing kinase, NIK (MAP3K14), full length (from UniProt Q99558 1-947) (enzyme)”, the binding entry in assay [1], in assay [2], in assay [3] and in assay [4] was “binds” in each case.

As to “NIK 1-947 (full length), His tagged (from UniProt Q99558 1-947) (enzyme)”, the binding result in assay [5] was “binds”.

For the substance “myc tagged NIK (pcS3MTNIK) (from UniProt Q99558 1-947) (enzyme)”, the binding entry in assay [6] and in assay [7] was “binds” in each case.
